This experiment concerns the target VPS13B-GFP (human) (UniProt Q7Z7G8). Kind of experiment: affinity purification with mass spectrometry.

The chains behind the UniProt entries cited, without tags or fusion partners.
UniProt Q7Z7G8: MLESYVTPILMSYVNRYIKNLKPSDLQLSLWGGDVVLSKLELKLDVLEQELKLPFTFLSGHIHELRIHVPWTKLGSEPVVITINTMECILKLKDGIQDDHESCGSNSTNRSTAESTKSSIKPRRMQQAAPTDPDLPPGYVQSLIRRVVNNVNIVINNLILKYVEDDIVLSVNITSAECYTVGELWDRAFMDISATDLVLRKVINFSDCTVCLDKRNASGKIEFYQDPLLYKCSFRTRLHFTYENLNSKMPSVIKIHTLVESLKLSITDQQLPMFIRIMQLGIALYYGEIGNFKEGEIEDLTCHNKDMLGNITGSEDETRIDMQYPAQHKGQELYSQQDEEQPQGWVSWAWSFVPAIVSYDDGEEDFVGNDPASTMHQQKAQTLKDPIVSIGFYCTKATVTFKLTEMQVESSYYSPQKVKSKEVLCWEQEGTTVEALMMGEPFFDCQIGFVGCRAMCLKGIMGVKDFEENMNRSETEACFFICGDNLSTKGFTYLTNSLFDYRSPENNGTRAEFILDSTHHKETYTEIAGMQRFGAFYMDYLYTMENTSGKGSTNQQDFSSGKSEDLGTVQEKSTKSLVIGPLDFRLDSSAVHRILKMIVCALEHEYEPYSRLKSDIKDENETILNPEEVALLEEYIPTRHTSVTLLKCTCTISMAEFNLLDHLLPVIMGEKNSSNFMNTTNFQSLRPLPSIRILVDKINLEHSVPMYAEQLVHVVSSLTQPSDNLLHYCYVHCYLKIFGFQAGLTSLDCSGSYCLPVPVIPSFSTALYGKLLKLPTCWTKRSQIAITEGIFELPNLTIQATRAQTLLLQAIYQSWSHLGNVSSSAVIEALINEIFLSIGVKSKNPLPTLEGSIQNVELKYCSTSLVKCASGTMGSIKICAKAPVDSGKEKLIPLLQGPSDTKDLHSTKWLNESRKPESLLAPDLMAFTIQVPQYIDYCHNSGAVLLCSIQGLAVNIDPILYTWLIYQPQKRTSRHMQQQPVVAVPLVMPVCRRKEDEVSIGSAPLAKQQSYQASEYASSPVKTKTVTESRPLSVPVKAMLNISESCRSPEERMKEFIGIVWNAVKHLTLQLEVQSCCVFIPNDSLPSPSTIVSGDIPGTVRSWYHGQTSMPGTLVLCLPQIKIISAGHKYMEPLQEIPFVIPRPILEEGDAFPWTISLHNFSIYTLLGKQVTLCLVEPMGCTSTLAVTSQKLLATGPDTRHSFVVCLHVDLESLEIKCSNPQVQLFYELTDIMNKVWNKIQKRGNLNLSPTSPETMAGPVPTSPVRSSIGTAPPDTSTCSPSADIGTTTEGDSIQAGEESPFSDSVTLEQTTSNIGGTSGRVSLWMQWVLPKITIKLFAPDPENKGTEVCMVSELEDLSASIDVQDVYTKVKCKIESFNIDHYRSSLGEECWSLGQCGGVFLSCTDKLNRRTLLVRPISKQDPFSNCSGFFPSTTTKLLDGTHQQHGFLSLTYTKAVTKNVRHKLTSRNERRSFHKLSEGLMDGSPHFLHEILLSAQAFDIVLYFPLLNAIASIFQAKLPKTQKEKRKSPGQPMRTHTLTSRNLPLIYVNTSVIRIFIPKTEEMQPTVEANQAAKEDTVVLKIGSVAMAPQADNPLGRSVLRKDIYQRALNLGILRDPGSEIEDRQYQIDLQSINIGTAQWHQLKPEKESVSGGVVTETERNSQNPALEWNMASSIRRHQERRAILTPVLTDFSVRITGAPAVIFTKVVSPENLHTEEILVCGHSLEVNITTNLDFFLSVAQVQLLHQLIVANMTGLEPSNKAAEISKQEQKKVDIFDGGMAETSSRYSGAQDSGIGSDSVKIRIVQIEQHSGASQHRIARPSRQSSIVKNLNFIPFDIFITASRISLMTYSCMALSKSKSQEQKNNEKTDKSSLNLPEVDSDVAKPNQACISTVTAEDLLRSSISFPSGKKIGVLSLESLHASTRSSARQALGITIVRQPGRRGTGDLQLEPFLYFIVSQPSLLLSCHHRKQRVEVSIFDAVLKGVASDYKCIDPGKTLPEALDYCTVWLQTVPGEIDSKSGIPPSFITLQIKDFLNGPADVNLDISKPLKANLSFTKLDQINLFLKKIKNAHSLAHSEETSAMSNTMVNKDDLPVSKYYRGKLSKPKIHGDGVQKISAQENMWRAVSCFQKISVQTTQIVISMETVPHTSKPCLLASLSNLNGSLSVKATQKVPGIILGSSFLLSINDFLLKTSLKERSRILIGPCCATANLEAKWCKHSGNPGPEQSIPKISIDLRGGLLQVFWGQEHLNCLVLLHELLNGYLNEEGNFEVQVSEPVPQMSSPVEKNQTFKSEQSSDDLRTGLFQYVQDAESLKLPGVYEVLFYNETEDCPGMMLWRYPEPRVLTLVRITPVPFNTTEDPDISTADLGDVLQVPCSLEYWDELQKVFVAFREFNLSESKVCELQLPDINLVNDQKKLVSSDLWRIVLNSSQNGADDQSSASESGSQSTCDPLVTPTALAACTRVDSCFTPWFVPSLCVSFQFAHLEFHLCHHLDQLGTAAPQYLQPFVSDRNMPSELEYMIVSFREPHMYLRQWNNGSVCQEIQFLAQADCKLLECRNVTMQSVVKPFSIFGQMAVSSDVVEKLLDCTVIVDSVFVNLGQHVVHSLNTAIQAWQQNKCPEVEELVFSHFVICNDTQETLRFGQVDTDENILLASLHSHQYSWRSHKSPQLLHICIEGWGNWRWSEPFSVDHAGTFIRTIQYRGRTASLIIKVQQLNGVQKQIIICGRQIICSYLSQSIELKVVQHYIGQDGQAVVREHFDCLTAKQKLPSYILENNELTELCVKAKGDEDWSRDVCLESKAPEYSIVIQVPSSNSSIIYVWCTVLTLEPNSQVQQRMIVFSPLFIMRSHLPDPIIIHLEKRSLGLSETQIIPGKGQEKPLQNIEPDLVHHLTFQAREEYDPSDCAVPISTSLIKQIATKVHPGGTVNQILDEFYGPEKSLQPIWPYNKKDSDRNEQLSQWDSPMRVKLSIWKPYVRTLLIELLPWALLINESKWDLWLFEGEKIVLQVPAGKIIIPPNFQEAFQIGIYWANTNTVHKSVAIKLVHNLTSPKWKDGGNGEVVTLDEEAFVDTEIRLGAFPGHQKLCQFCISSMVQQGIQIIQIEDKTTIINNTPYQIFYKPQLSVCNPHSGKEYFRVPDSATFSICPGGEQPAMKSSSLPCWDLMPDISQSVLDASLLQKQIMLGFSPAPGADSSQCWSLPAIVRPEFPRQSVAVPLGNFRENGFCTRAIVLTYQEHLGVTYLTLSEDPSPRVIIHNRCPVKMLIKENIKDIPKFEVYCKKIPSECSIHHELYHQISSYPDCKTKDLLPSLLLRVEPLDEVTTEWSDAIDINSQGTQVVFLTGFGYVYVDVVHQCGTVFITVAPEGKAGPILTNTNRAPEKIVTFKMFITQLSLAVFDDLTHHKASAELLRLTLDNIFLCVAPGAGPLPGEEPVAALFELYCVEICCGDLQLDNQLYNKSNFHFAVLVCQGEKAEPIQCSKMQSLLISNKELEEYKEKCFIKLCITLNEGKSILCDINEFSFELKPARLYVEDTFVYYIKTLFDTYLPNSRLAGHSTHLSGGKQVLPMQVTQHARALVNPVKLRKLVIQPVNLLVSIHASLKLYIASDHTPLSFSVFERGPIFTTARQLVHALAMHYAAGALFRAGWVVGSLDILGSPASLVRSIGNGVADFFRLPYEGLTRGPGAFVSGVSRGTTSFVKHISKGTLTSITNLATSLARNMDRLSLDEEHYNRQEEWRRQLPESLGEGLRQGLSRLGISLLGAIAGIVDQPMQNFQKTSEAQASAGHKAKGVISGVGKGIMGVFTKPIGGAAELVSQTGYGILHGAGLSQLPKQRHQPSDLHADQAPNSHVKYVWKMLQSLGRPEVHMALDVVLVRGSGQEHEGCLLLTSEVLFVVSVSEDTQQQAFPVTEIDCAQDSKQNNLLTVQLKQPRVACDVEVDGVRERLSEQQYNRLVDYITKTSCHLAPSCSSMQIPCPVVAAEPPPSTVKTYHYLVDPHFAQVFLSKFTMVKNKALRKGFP

Results are given in words; binding and its absence hold for the method and conditions named. Binding seen in cells or lysates may run through a third protein. Here binding means that the protein was enriched with, or labelled near, the bait; the list need not be complete.

B1: endogenous Sec23IP (protein, UniProt Q9Y6Y8 1-1000)
chain: MAERKPNGGSGGASTSSSGTNLLFSSSATEFSFNVPFIPVTQASASPASLLLPGEDSTDVGEEDSFLGQTSIHTSAPQTFSYFSQVSSSSDPFGNIGQSPLTTAATSVGQSGFPKPLTALPFTTGSQDVSNAFSPSISKAQPGAPPSSLMGINSYLPSQPSSLPPSYFGNQPQGIPQPGYNPYRHTPGSSRANPYIAPPQLQQCQTPGPPAHPPPSGPPVQMYQMPPGSLPPVPSSVQSPAQQQVPARPGAPSVQVPSPFLLQNQYEPVQPHWFYCKEVEYKQLWMPFSVFDSLNLEEIYNSVQPDPESVVLGTDGGRYDVYLYDRIRKAAYWEEEPAEVRRCTWFYKGDTDSRFIPYTEEFSEKLEAEYKKAVTTNQWHRRLEFPSGETIVMHNPKVIVQFQPSSVPDEWGTTQDGQTRPRVVKRGIDDNLDEIPDGEMPQVDHLVFVVHGIGPVCDLRFRSIIECVDDFRVVSLKLLRTHFKKSLDDGKVSRVEFLPVHWHSSLGGDATGVDRNIKKITLPSIGRFRHFTNETLLDILFYNSPTYCQTIVEKVGMEINHLHALFMSRNPDFKGGVSVAGHSLGSLILFDILSNQKDLNLSKCPGPLAVANGVVKQLHFQEKQMPEEPKLTLDESYDLVVENKEVLTLQETLEALSLSEYFSTFEKEKIDMESLLMCTVDDLKEMGIPLGPRKKIANFVEHKAAKLKKAASEKKAVAATSTKGQEQSAQKTKDMASLPSESNEPKRKLPVGACVSSVCVNYESFEVGAGQVSVAYNSLDFEPEIFFALGSPIAMFLTIRGVDRIDENYSLPTCKGFFNIYHPLDPVAYRLEPMIVPDLDLKAVLIPHHKGRKRLHLELKESLSRMGSDLKQGFISSLKSAWQTLNEFARAHTSSTQLQEELEKVANQIKEEEEKQVVEAEKVVESPDFSKDEDYLGKVGMLNGGRRIDYVLQEKPIESFNEYLFALQSHLCYWESEDTALLLLKEIYRTMNISPEQPQH
Consider B1, for which the binding entry is listed as “binds”.
